{"source": "paper PMC6033897", "about": "“Characterization and Validation of a Human 3D Cardiac Microtissue for the Assessment of Changes in Cardiac Pathology” (Scientific Reports, 2018)", "origin": "cited, not measured here", "details": "total Cmax, therapeutically relevant maximum total plasma concentration; source not given; cited from earlier work", "note": "Where a name gives a salt, the structure may show the parent alone.", "data": [{"smiles": "CCCCc1oc2ccccc2c1C(=O)c1cc(I)c(OCCN(CC)CC)c(I)c1", "note": "[Amiodarone HCl]", "values": [{"measurement": "Cmax", "value": 3.02, "unit": "µM"}]}]}
